Target: ATXN1-S776 phosphorylation
Experiment: In vitro mouse cerebellar extract kinase assay
Format: biochemical
Conditions: panel of six kinase inhibitors, Figure S1B

With CN[C@@H]1C[C@H]2O[C@@](C)([C@@H]1OC)n1c3ccccc3c3c4c(c5c6ccccc6n2c5c31)C(=O)NC4 [Staurosporine] the “IC50 for inhibition of GST-ATXN1[30Q]-S776 phosphorylation (range in words)” value was “low nanomolar range”.
